Screen size: about 390,000 compounds; about 4,000 (1%) were called active. Inconclusive means that the source gave no clear call. Such entries were picked first, then a sample of the others. The call rests on the fitted dose curve; in most records, active means well fitted inhibition curve with a large enough effect; inconclusive means small, poorly fitted or top-dose-only effect, or another doubt; inactive means no such curve, though single readings can be large or run the other way. Where the call is inconclusive, the potency comes from a doubtful curve fit.
Target: DNA polymerase iota (Homo sapiens) (UniProt Q9UNA4)
Experiment: qHTS for Inhibitors of Polymerase Iota
Conditions: Pol iota fluorescent replication assay, 10 min; series mostly up to 115 µM; activity, negative = inhibition: at the top concentration
Method in brief: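 Fluorescent replication assay read twice, at 0 min and 10 min after adding 50 nM (final) substrate. Enzyme (10 nM) and compounds were first incubated 15 min at room temperature; enzyme-free buffer wells were negative controls.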
Potency means the concentration at half of the fitted maximal effect.

The chains behind the UniProt entries cited, without tags or fusion partners. Where a name states a change or a piece, a line headed by the entry shows the natural chain unless it says otherwise.
UniProt Q9UNA4: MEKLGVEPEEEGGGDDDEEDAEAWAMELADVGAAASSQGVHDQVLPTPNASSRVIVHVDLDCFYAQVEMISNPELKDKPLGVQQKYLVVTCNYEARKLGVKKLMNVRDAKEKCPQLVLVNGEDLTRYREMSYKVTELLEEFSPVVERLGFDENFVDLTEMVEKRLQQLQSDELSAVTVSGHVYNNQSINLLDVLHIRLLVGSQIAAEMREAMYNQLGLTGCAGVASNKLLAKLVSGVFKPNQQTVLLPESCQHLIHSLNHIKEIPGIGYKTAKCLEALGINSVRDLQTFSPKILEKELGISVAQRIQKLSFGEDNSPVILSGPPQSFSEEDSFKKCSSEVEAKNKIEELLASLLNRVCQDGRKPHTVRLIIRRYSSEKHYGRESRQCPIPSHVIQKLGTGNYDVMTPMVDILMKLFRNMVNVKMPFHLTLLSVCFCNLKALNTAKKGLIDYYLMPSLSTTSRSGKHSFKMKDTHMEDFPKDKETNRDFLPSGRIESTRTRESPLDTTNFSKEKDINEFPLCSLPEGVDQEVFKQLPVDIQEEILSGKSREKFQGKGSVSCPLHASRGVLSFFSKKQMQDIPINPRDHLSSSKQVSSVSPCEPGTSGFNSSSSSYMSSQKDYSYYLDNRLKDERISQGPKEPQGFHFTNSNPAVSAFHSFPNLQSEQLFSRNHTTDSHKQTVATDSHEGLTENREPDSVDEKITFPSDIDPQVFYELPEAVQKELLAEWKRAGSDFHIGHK

Row | Compound | Potency | activity, negative = inhibition
1 | O=C(/C=C/c1ccco1)N(Cc1cccc(F)c1)C1CCS(=O)(=O)C1 (stereo unspecified) | inconclusive: 79.4 µM [inhibitor, partial curve] | 
2 | CN1N=C(C(C)(C)C)CC1=O | active: 3.98 µM | 
3 | O=C(c1ccc(S(=O)(=O)Nc2cccc(C(F)(F)F)c2)cc1)N1CCOCC1 |  | inactive: 56.2%
4 | Cc1c(CC(=O)N[C@H](C(=O)O)C(C)C)c(=O)oc2cc3c(cc12)CCC(C)(C)O3 |  | inactive: 7.85%
5 | O=C(N/N=C/c1ccoc1)c1cccc([N+](=O)[O-])c1 | inconclusive: 89.1 µM [inhibitor, single point] | 
6 | CCOC(=O)N1CCC(NC(=O)c2ccc3c(Cl)c4c(nc3c2)CCCC4)CC1 | inconclusive: 79.4 µM [inhibitor, partial curve, poor fit] | 
7 | CC(C)Oc1ccc(CNC(=O)C2CCN(c3nc4ccccc4n(C)c3=O)CC2)cc1 |  | inactive: 29.1%
8 | Cc1ccc(NC(=O)Cn2nnc(C(=O)NCCc3ccccc3)c2N)cc1C | active: 89.1 µM | 
9 | NS(=O)(=O)c1cccc(C(=O)NC2CCSc3ccccc32)c1 (stereo unspecified) |  | inactive: 25.1%
10 | Cc1cc(NS(=O)(=O)c2ccc(C3CCCCC3)cc2)no1 | inconclusive: 89.1 µM [inhibitor, single point] | 
11 | CC(C)CC(=O)NC(=S)Nc1ccc(S(=O)(=O)NC(C)(C)C)cc1 | inconclusive: 100 µM [inhibitor, single point] | 
12 | CCS(=O)(=O)Nc1cc(C(=O)OC)ccc1C(=O)OC | inconclusive: 20 µM [inhibitor, single point] | 
13 | COc1ccc(S(=O)(=O)n2nc(OC(=O)c3ccccc3Br)cc2N)cc1 | inconclusive: 11.2 µM [inhibitor, partial curve, poor fit] | 
14 | Cc1nc(SCc2ccc(C(=O)O)cc2)c2c(C)c(C)sc2n1 | inconclusive: 39.8 µM [inhibitor, single point] | 
15 | O=C(COC(=O)c1n[nH]c2ccccc12)NC(=O)NCc1ccco1 | inconclusive: 39.8 µM [inhibitor, single point] | 
16 | COc1ccc(-c2c(C#Cc3ccsc3)c3ccccc3n2C)cc1 | inconclusive: 28.2 µM [inhibitor, single point] | 
17 | Cc1ccc(O)c(NC(=O)CCS(=O)(=O)c2nc(-c3ccc4c(c3)OCO4)cc(C(F)(F)F)n2)c1 | inconclusive: 28.2 µM [inhibitor, single point] | 
18 | COc1ccc2nc(SCC(=O)Nc3ccccc3)[nH]c2c1 |  | inactive: -15.2%
19 | Cc1ccc(Cl)cc1C1=CC(=O)C[C@H](c2ccc(F)cc2)C1 | inconclusive: 15.8 µM [inhibitor, partial curve, poor fit] | 
20 | CCc1ccc(-n2c(CCC(=O)O)ccc2-c2ccc(F)cc2)cc1 |  | inactive: 14.2%
21 | CCc1nnc(NS(=O)(=O)c2ccc(NC(=S)NC(=O)c3cccs3)cc2)s1 | inconclusive: 50.1 µM [inhibitor, partial curve, poor fit] | 

Row | Compound | Potency | activity, negative = inhibition
22 | NC(=O)c1oc2ccccc2c1NC(=O)c1nc2ccccc2s1 | inconclusive: 50.1 µM [inhibitor, partial curve, poor fit] | 
23 | CCCCSc1nc(O)c(C2OC(=O)c3c2ccc(OC)c3OC)c(=O)n1-c1ccccc1 (stereo unspecified) | inconclusive: 39.8 µM [inhibitor, partial curve, poor fit] | 
24 | CCn1c(CN2CCCCC2)nc2cc(NC(=O)c3ccc([N+](=O)[O-])cc3)ccc21 |  | inactive: -15.4%
25 | CC#CCN1c2ccccc2[C@]23C[C@@H](C(=O)OC)N(C(C)=O)C2=NC(C(=O)OC)=C(C(=O)OC)[C@H]13 | inconclusive: 25.1 µM [inhibitor, partial curve, poor fit] | 
26 | O=c1[nH]c(=O)n([C@H]2C[C@H](O)[C@@H](CO)O2)cc1I | inconclusive: 89.1 µM [inhibitor, single point] | 
27 | Cc1ccc(/C=C2/C(=O)c3ccc(C(=O)O)cc3C2=O)o1 | inconclusive: 0.708 µM [inhibitor, full curve, poor fit] | 
28 | Cc1nc(COC(=O)c2ccc(CO)cc2)cs1 | inconclusive: 10 µM [inhibitor, partial curve, poor fit] | 
29 | O=C(O)CCn1cc(/C=C/C(=O)c2ccc(Cl)cc2)c(-c2ccc(Br)cc2)n1 | inconclusive: 50.1 µM [inhibitor, partial curve] | 
30 | CN(Cc1ccccc1)C(=O)CSc1nc2ccccc2n1Cc1ccccc1F |  | inactive: 42%
31 | CC(C)c1cnc2c(c1SCC(=O)NCc1ccccc1)c(=O)n(C)c(=O)n2C |  | inactive: -2.63%
32 | Oc1cccc2c(-c3nn[nH]n3)ccnc12 | inconclusive: 15.8 µM [inhibitor, partial curve, poor fit] | 
33 | COc1cccc(N2CC34C=CC(O3)C(C(=O)O)C4C2=O)c1 (stereo unspecified) | inconclusive: 15.8 µM [inhibitor, full curve, poor fit] | 
34 | O=C(Cc1ccc(F)cc1)Nc1cccc(-c2ccc3nncn3n2)c1 | inconclusive: 89.1 µM [inhibitor, single point] | 
35 | CC(NC(=O)c1cc([N+](=O)[O-])cc([N+](=O)[O-])c1)C1CC2CCC1C2 (stereo unspecified) | inconclusive: 79.4 µM [inhibitor, single point] | 
36 | O=C(COC(=O)c1ccc[nH]c1=O)Nc1ccc(S(=O)(=O)N2CCCC2)cc1 | inconclusive: 10 µM [inhibitor, full curve, poor fit] | 
37 | COc1ccc2nc(NC(=O)c3cc(C)oc3C)sc2c1 | inconclusive: 17.8 µM [inhibitor, partial curve, poor fit] | 
38 | CC(C)CC(=O)N1CCN(S(C)(=O)=O)CC1 | inconclusive: 3.16 µM [inhibitor, full curve, poor fit] | 
39 | O=C(CN1CCN(c2ccccc2O)CC1)NNC(=O)c1ccc(Cl)cc1 | inconclusive: 112 µM [inhibitor, single point] | 
40 | N=c1c(C(=O)NCc2ccco2)cc2c(=O)n3ccccc3nc2n1CC1CCCO1 (stereo unspecified) | inconclusive: 15.8 µM [inhibitor, partial curve, poor fit] | 
41 | COc1ccc(Cl)cc1NC(=O)CSC1=Nc2ccccc2C2=NC(CC(=O)NCc3ccc4c(c3)OCO4)C(=O)N12 (stereo unspecified) | inconclusive: 100 µM [inhibitor, single point] | 

Single values from the list:
Entry of `Cc1nc(COC(=O)c2ccc(CO)cc2)cs1` under Potency: inconclusive: 10 µM [inhibitor, partial curve, poor fit]
Entry of `CC#CCN1c2ccccc2[C@]23C[C@@H](C(=O)OC)N(C(C)=O)C2=NC(C(=O)OC)=C(C(=O)OC)[C@H]13` under Potency: inconclusive: 25.1 µM [inhibitor, partial curve, poor fit]

— PubChem BioAssay AID588590 (National Center for Advancing Translational Sciences (NCATS), 2011)
